Test results published in patent EP0046377A1, “Cycloalkenylcarboxamido derivatives of tetramisole, their preparation and use in medicine” (BEECHAM GROUP PLC, priority 1980, dated 1982).
Where a name gives a salt, the structure may show the parent alone. Some results were stated once for a whole list of compounds, not compound by compound. At least one compound was matched to its structure with a doubt left.

system: Nematospiroides dubius; format: in vivo; details: oral, mice, various dosages
Procedure: The compounds of Examples 1 to 15 were each administered orally to mice infected with Nematospiroides dubius at various dosages. Activity was calculated as % reduction in the numbers of worms in treated as opposed to control (untreated, infected) animals.

SMILES | signs of toxicity
O=C(Nc1cccc(C2CN3CCSC3=N2)c1)C1CC=CCC1 (racemic) [Example 1] | No obvious signs of toxicity were observed
CC1(C)C=C(C(=O)Nc2cccc(C3CN4CCSC4=N3)c2)C=CC1 (stereo not shown) [Example 2, 6-[3-(3,3-dimethyl-1,5-cyclohexadien-1-ylcarboxamido)phenyl]-2,3,5,6-tetrahydroimidazo[-2,1-b]thiazole hydrochloride] | No obvious signs of toxicity were observed
O=C(Nc1cccc(C2CN3CCSC3=N2)c1)C1=CCC=CC1 (stereo not shown) [Example 3] | No obvious signs of toxicity were observed
O=C(Nc1cccc(C2CN3CCSC3=N2)c1)C1C=CCC1 (stereo not shown) [Example 4, 6-[3-(2-cyclopenten-1-ylcarboxamido)phenyl]-2,3,5,6-tetrahydroimidazo[2,1-b]thiazole] | No obvious signs of toxicity were observed
O=C(Nc1cccc(C2CN3CCSC3=N2)c1)C1C=CCCC1 (stereo not shown) [Example 5] | No obvious signs of toxicity were observed
O=C(Nc1cccc(C2CN3CCSC3=N2)c1)C1=CC2(CC=C1)CCCC2 (stereo not shown) [Example 6] | No obvious signs of toxicity were observed
CC1C=CCCC1C(=O)Nc1cccc(C2CN3CCSC3=N2)c1 (stereo not shown) [Example 7] | No obvious signs of toxicity were observed
CC1C=CCC(C(=O)Nc2cccc(C3CN4CCSC4=N3)c2)C1 (stereo not shown) [Example 8] | No obvious signs of toxicity were observed
O=C(Nc1cccc(C2CN3CCSC3=N2)c1)C1=CCCCC1 (stereo not shown) [Example 9] | No obvious signs of toxicity were observed
O=C(Nc1cccc(C2CN3CCSC3=N2)c1)C1=CCCCCC1 (stereo not shown) [Example 10] | No obvious signs of toxicity were observed
O=C(Nc1cccc(C2CN3CCSC3=N2)c1)C1CC=CC1 (stereo not shown) [Example 11] | No obvious signs of toxicity were observed
O=C(Nc1cccc(C2CN3CCSC3=N2)c1)C1=CC2(CC=CCC2)CC=C1 (stereo not shown) [Example 12] | No obvious signs of toxicity were observed
O=C(Nc1cccc(C2CN3C=CSC3=N2)c1)C1CC=CCC1 (stereo not shown) [Example 15] | No obvious signs of toxicity were observed
